Laboratory results as given in patent publication US10064926B2, “Peptides and combination of peptides for use in immunotherapy against hepatocellular carcinoma (HCC) and other cancers” (Immatics biotechnologies GmbH, priority 2014, dated 2018).
For some assays here: Expression values are those of the mRNA of the gene that encodes the peptide; a gene is named only where it was looked up.

Columns and labels:
[1] = test system: source genes of the peptides in HCC and normal tissues; assay: mRNA expression profiling of source genes by Affymetrix microarray (expression scores); set-up: species or system human; key: very highly overexpressed in tumors compared to a panel of normal tissues (+++); highly overexpressed in tumors compared to a panel of normal tissues (++); overexpressed in tumors compared to a panel of normal tissues (+); details: source gene mRNA in tumors compared to a panel of normal tissues
[2] = test system: primary HCC tissue samples; assay: Identification and label-free LC-MS relative quantitation of HLA-presented peptides (presentation profiles/scores), HCC versus normal tissues; set-up: species or system human; key to PeptidePresentation (presentation score): very highly over-presented on tumors compared to a panel of normal tissues (+++); highly over-presented on tumors compared to a panel of normal tissues (++); over-presented on tumors compared to a panel of normal tissues (+); details: HCC tumors compared to a panel of normal tissues
[3] = test system: tumor samples of other tumor types; assay: Over-presentation of peptides on additional tumor types versus normal tissues (LC-MS); set-up: species or system human; details: over-presentation on more than 5% of the measured tumor samples, or presentation on more than 5% with ratio of geometric means tumor vs normal tissues larger than 3

Substance	Gene Expression (expression score) [1]	PeptidePresentation (presentation score) [2]	Additional Entities (additional tumor types on which the peptide was found over-presented) [3]	Other relevant organs/diseases (additional tumor types on which the peptide was found over-presented) [3]
13: peptide found in HSD11B1 (gene looked up) (GLIDTETAMKAV; listed as Homo sapiens) [compound 13]	+++			
50: peptide found in APOB (gene looked up) (FTIPKLYQL; listed as Homo sapiens) [compound 50]	+++			
73: peptide found in ABCB11 (gene looked up) (KLTLVIISV; listed as Homo sapiens) [compound 73]	+++			
87: peptide found in PAH (gene looked up) (RLFEENDVNL; listed as Homo sapiens) [compound 87]	+++			
100: peptide found in CRP (gene looked up) (SLVGDIGNVNM; listed as Homo sapiens) [compound 100]	+++			
105: peptide found in PON2 (gene looked up) (SVYDGKLLI; listed as Homo sapiens) [compound 105]	+			
106: peptide found in ABCB1 (gene looked up) (TLAAIIHGA; listed as Homo sapiens) [compound 106]	++			
158: peptide found in FMO5 (gene looked up) (RIISGLVKV; listed as Homo sapiens) [compound 158]	++			
160: peptide found in CFH (gene looked up) (RLLAKIICL; listed as Homo sapiens) [compound 160]	+++			
175: peptide found in GRB14 (gene looked up) (TLFEHLPHI; listed as Homo sapiens) [compound 175]	++			
182: peptide found in AKR1C4 (gene looked up) (YLLHFPMAL; listed as Homo sapiens) [compound 182]	+++			
183: peptide found in AKR1C4 (gene looked up) (YLYNNEEQVGL; listed as Homo sapiens) [compound 183]	+++			
215: peptide found in GGH (gene looked up) (IYTGNISSF; listed as Homo sapiens) [compound 215]	+++			
297 (TLFYSLREV; listed as Homo sapiens) [compound 297]		+	BRCA, Uterine Cancer, AML	Kidney, Brain, Colon, Rectum
299 (ALLRVTPFI; listed as Homo sapiens) [compound 299]		+	NHL, OC	CLL
301 (VLADFGARV; listed as Homo sapiens) [compound 301]		+++		Kidney, Colon, Rectum
304 (SLIDQFFGV; listed as Homo sapiens) [compound 304]		+++		Brain, Colon, Rectum, Pancreas
305 (GVLENIFGV; listed as Homo sapiens) [compound 305]		+		Kidney, Brain
308 (ALLRTVVSV; listed as Homo sapiens) [compound 308]		+		Kidney, Pancreas
309 (GLIEIISNA; listed as Homo sapiens) [compound 309]		+		Brain
310 (SLWGGDVVL; listed as Homo sapiens) [compound 310]		+		Brain, Colon, Rectum
311 (FLIPIYHQV; listed as Homo sapiens) [compound 311]		+		Kidney, Brain
312 (RLGIKPESV; listed as Homo sapiens) [compound 312]		+++		Brain

Substance	Gene Expression (expression score) [1]	PeptidePresentation (presentation score) [2]	Additional Entities (additional tumor types on which the peptide was found over-presented) [3]	Other relevant organs/diseases (additional tumor types on which the peptide was found over-presented) [3]
313 (LTAPPEALLMV; listed as Homo sapiens) [compound 313]		+		Kidney, Brain, Colon, Rectum, Pancreas
315 (KVLDGSPIEV; listed as Homo sapiens) [compound 315]		+		Kidney
316 (LLREKVEFL; listed as Homo sapiens) [compound 316]		+		Kidney, Brain, Colon, Rectum, Pancreas
317 (KLPEKWESV; listed as Homo sapiens) [compound 317]		++		Brain, Colon, Rectum, Pancreas
319 (KLFNEFIQL; listed as Homo sapiens) [compound 319]		+		Kidney, Brain, Colon, Rectum
324 (RLFETKITQV; listed as Homo sapiens) [compound 324]		++		Kidney
326 (ALSDGVHKI; listed as Homo sapiens) [compound 326]		++		Pancreas
328 (RLEEDDGDVAM; listed as Homo sapiens) [compound 328]		+		Kidney, Brain, Colon, Rectum
329 (SLIEDLILL; listed as Homo sapiens) [compound 329]		+++		Kidney, Brain, Colon, Rectum, Pancreas
330 (SMSADVPLV; listed as Homo sapiens) [compound 330]		++	NSCLC, SCLC, BRCA, MCC, Melanoma, Esophageal Cancer, Urinary bladder cancer, Uterine Cancer, Gallbladder Cancer, Bile Duct Cancer, AML, NHL	Brain, Colon, Rectum
332 (AMLAVLHTV; listed as Homo sapiens) [compound 332]		+		Brain, Colon, Rectum
334 (SILTIEDGIFEV; listed as Homo sapiens) [compound 334]		+		Kidney, Brain, Colon, Rectum, Pancreas, CLL
335 (SLLPVDIRQYL; listed as Homo sapiens) [compound 335]		++		Kidney, CLL
336 (YLPTFFLTV; listed as Homo sapiens) [compound 336]		+		Kidney, Brain
337 (TLLAAEFLKQV; listed as Homo sapiens) [compound 337]		+		Brain
338 (KLFDSDPITVTV; listed as Homo sapiens) [compound 338]		+++		Brain
340 (KVFDEVIEV; listed as Homo sapiens) [compound 340]		+		Brain
342 (AMSSKFFLV; listed as Homo sapiens) [compound 342]		+	NSCLC, GC, PrC, BRCA, Melanoma, OC, Esophageal Cancer, Urinary bladder cancer, Uterine Cancer, Gallbladder Cancer, Bile Duct Cancer, PC	Brain, Colon, Rectum, Pancreas
343 (LLLPDYYLV; listed as Homo sapiens) [compound 343]		+		Brain, Pancreas
345 (SYNPLWLRI; listed as Homo sapiens) [compound 345]		+++	NSCLC, RCC, GC	Brain
346: peptide found in CDK1 (gene looked up) (LYQILQGIVF; listed as Homo sapiens) [compound 346]		+++	NSCLC, Brain Cancer, GC	Kidney
347 (ALNPADITV; listed as Homo sapiens) [compound 347]		+		Brain
